Some of the results follow. These are further read-outs of the screen, such as a control signal, another cell line or another target. No call is given for them. The list favours compounds with an active or inconclusive main result. Words in brackets tell the shape of the fitted curve; partial curves, single points and poor fits give uncertain potencies.
Test: IkB Signaling
Conditions: ABC-DLBCL IkBa-CBG/CBR dual luciferase ratio (green luciferase fused to IkBa over red control in OCI-Ly3 lymphoma cells), 4 h
In short: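 Curves were fitted separately to fusion (green), unfused (red) and ratio luminescence, then classed by r2, magnitude and activity. Cells: OCI-Ly3, 4 h compound plus doxycycline at 37C; 10 uM MG-132 defined full response.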

[1] = measured here: control luc red channel unless noted
[2] = measured here: IkB-luc green channel
[3] = measured here: control luc red channel

CCS(=O)(=O)N1CCc2cc(C(=O)Nc3cc([N+](=O)[O-])ccc3C)ccc21
AC50 [1]: 20 µM [falling, single point]

c1csc(-c2ncc3ccccn23)c1
AC50 [1]: 25.1 µM [rising, single point] [measured here: IkB-luc green channel]

COc1ccc(C(=O)Nc2ccc3nc(SCC(=O)N4CCCC4)sc3c2)cc1
AC50 [1]: 5.01 µM [falling, partial curve]

CCCC(=O)Nc1nnc(SCc2cc(=O)n3ccccc3n2)s1
AC50 [1]: 0.0316 µM [falling, full curve, poor fit]

COc1ccccc1CCNC(=O)Cn1ccc2cc(S(=O)(=O)N3CCCCC3)ccc21
AC50 [1]: 20 µM [falling, single point]

O=C(Nc1cccc2nsnc12)c1ccc2c(c1)OCCO2
AC50 [1]: 25.1 µM [falling, partial curve]

Cn1c(=O)c(=O)n(C)c2cc(S(=O)(=O)N3CCCC3C(=O)Nc3cccc(F)c3)ccc21 (stereo unspecified)
AC50 [1]: 39.8 µM [falling, single point]

CCS(=O)(=O)n1nc(-c2ccco2)nc1NCc1ccc(C(C)C)cc1
AC50 [1]: 25.1 µM [falling, partial curve]

O=C(CSc1nc(-c2ccc(F)cc2)cs1)N1CCN(C(=O)c2ccco2)CC1
AC50 [1]: 15.8 µM [falling, partial curve]

CC(C)c1cc(C(=O)NCc2ccc(F)cc2)no1
AC50 [1]: 0.251 µM [rising, partial curve]

CCCCn1c(SCC(=O)Nc2cccc(OC)c2)nc2ccc(N3CCOCC3)cc2c1=O
AC50 [1]: 6.31 µM [falling, partial curve]

Cc1cc(C)nc(SC2=CS(=O)(=O)c3ccccc32)n1
AC50 [1]: 3.16 µM [rising, full curve] [measured here: IkB-luc green channel]

CC(=O)Nc1ccc(NC(=O)C(NC(=O)C2CCC(C)CC2)C(C)C)cc1 (stereo unspecified)
AC50 [1]: 0.0251 µM [falling, full curve]

O=C(Nc1nccs1)c1ccc(S(=O)(=O)NCC2CCCCC2)cc1
AC50 [1]: 3.98 µM [falling, partial curve]

CCCc1cc(=O)n2[nH]c(SCc3ccccc3)nc2n1
AC50 [1]: 20 µM [falling, partial curve]

Cc1ccc(-n2cnc3cc(C(=O)NC4CCCCCC4)ccc32)c(C)c1
AC50 [1]: 25.1 µM [falling, partial curve]

COc1ccc(C)cc1NC(=O)C1CCC(CNS(=O)(=O)c2ccc3c(c2)CCCC(=O)N3)CC1 (stereo unspecified)
AC50 [1]: 31.6 µM [falling, single point]

CCc1ccc(Cn2nnc3c(=O)[nH]c(C4CCCN(C(=O)c5cccc(Cl)c5)C4)nc32)cc1 (stereo unspecified)
AC50 [1]: 2 µM [rising, partial curve, poor fit]

C/C=C/COC(=O)c1[nH]c2c(c1C)C(=O)CC(c1ccco1)C2 (stereo unspecified)
AC50 [2]: 0.631 µM [rising, full curve] | AC50 [3]: 0.126 µM [rising, full curve]

CCOC(=O)C1CCCN(C(=O)C2CCN(Cc3nc(-c4ccc(Cl)cc4)oc3C)CC2)C1 (stereo unspecified)
AC50 [1]: 15.8 µM [falling, partial curve]

COc1ccccc1NC(=O)N(Cc1ccccc1)c1ccccn1
AC50 [1]: 31.6 µM [falling, partial curve]

NC(=O)CSc1nc2cc3c(cc2c(=O)n1CCCCCC(=O)NCc1ccc2c(c1)OCO2)OCO3
AC50 [1]: 39.8 µM [falling, single point]

COc1ccc(OC)c(NC(=O)CSc2c3c(nc4cc(Cl)ccc24)CCCC3)c1
AC50 [1]: 25.1 µM [falling, single point]

O=C(Nc1ccccc1C(F)(F)F)C1(S(=O)(=O)c2ccc(Cl)cc2)CC1
AC50 [1]: 0.794 µM [falling, full curve, poor fit]

COc1ccc(-c2cn3c(n2)sc2cc(C(=O)NCC(C)c4ccccc4)ccc23)cc1 (stereo unspecified)
AC50 [1]: 12.6 µM [falling, partial curve]

CCCCCCNC(=O)CCc1c(C)nc2nc(-c3cc(OC)cc(OC)c3)nn2c1C
AC50 [1]: 25.1 µM [falling, single point]

Cc1ccc(C(=O)c2cn(Cc3cc(C)ccc3C)c3nc(C)ccc3c2=O)cc1
AC50 [1]: 31.6 µM [falling, partial curve]

Cc1ccc(-c2noc(CN(C(=O)c3cccc(Br)c3)C(C)C)n2)cc1
AC50 [1]: 25.1 µM [falling, partial curve]

COc1ccc2[nH]cc(C(=O)CN3CCN(C/C=C/c4ccccc4)CC3)c2c1
AC50 [1]: 20 µM [falling, partial curve]

CC1Cn2c(C(=O)NCCc3ccc(Cl)cc3)cc3cccc(c32)S1 (stereo unspecified)
AC50 [1]: 25.1 µM [falling, partial curve]

Cc1c(C(=O)N2CCCC2)oc2c1-c1nn(CC(=O)NCc3ccccc3Br)cc1CC2
AC50 [1]: 15.8 µM [falling, partial curve]

COc1ccc(NC(=O)CCS(=O)(=O)c2nc(-c3ccc4c(c3)OCO4)cc(C(F)(F)F)n2)cc1
AC50 [1]: 12.6 µM [falling, partial curve]

COc1ccc(C)cc1NC(=O)CCc1c(C)nn(-c2ccc(N3CCCCC3)nn2)c1C
AC50 [1]: 20 µM [falling, single point]

CSc1ccc(C2CC(=O)Oc3c2c(=O)n(C)c2ccccc32)cc1 (stereo unspecified)
AC50 [1]: 39.8 µM [falling, single point]

CC1Cc2cc(-c3csc(NC(=O)Cc4cccs4)n3)ccc2N1S(C)(=O)=O (stereo unspecified)
AC50 [2]: 3.16 µM [falling, full curve] | AC50 [3]: 3.16 µM [falling, full curve]

N#Cc1nc(-c2ccc(OCc3ccccc3)cc2)oc1NCCCn1ccnc1
AC50 [1]: 25.1 µM [falling, partial curve]

COc1ccc(-c2cc(C(=O)Oc3ccc(C)cc3)c3cc(C)ccc3n2)cc1
AC50 [1]: 2 µM [falling, full curve]

Cc1c(NC(=O)C2CCCN2S(=O)(=O)c2ccc(Cl)cc2)c(=O)n(-c2ccccc2)n1C (stereo unspecified)
AC50 [1]: 6.31 µM [falling, single point]

Nc1ccc(O)c(-c2nc3ccccc3s2)c1
AC50 [1]: 15.8 µM [falling, partial curve]

Reference: PubChem BioAssay AID445 (National Center for Advancing Translational Sciences (NCATS), 2006)
